According to US6110888A, “Substituted phenols as fragrance, flavor and antimicrobial compounds” (Takasago International Corporation, priority 1999, dated 2000):
Some results were stated once for a whole list of compounds, not compound by compound.

Assays:
gram positive bacteria = assay: Anti-microbial activity against gram positive bacteria (summary); assay type: cell-based; settings: in words
fungi = assay: Activity against fungi (summary); assay type: cell-based; settings: in words

Row | SMILES | minimum inhibition concentration (MIC) compared with thymol and carvacrol standards (gram positive bacteria) | activity against fungi compared with thymol and carvacrol (fungi)
1 | CCCc1cc(C(C)(C)C)ccc1O [Example 6, Ortho Propyl Para tert-Butyl Phenol] | lower than those of thymol and carvacrol | only slightly better than that of thymol and carvacrol
2 | C=CCc1cc(C(C)(C)C)ccc1O [Example 5, Ortho Allyl Para tert-Butyl Phenol] | lower than those of thymol and carvacrol | only slightly better than that of thymol and carvacrol
